# Results: the supplement of paper PMC7666118
# By UniProt entry, the sequences of proteins in these tests, tags left out. Where a name states a change or a piece, a line headed by the entry shows the natural chain unless it says otherwise.
# UniProt P20933: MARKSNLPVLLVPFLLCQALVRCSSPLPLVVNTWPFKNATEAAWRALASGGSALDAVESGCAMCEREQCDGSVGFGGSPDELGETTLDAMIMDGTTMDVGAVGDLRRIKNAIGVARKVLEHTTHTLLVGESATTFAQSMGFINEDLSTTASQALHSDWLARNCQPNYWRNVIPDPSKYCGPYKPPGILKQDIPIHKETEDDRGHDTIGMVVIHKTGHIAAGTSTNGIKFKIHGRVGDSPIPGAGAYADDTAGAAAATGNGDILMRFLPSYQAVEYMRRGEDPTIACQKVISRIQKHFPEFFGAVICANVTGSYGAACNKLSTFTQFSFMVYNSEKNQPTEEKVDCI
# UniProt Q9UIJ7: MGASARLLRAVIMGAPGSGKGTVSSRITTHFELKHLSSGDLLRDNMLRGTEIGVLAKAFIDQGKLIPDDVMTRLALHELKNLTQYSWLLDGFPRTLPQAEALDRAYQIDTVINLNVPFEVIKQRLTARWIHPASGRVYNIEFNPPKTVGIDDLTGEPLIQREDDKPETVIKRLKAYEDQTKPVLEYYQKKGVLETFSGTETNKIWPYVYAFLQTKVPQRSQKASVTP
# UniProt P78540: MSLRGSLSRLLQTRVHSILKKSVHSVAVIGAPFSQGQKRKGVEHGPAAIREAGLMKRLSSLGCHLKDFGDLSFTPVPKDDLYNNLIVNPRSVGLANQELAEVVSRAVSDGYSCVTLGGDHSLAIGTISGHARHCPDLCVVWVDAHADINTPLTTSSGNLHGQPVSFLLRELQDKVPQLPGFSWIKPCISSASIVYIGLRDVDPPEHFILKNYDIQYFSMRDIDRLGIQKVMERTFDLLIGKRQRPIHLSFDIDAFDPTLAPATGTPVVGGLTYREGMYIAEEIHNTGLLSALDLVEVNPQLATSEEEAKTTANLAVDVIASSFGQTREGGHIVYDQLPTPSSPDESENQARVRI
# UniProt Q9BQI0: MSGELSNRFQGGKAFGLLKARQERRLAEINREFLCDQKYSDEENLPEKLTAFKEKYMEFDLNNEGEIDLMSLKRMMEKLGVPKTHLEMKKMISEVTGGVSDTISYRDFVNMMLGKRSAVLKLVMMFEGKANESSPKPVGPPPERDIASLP
# UniProt Q96BJ3: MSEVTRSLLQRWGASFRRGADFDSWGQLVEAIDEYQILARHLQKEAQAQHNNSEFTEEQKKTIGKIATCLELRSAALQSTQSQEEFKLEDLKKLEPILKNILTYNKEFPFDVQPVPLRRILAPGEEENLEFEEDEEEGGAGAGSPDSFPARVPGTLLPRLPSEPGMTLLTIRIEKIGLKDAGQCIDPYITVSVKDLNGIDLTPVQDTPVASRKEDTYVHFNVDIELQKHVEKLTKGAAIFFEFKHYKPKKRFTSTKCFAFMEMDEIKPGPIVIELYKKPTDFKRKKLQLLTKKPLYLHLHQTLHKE
# UniProt Q9H1A4, whole entry: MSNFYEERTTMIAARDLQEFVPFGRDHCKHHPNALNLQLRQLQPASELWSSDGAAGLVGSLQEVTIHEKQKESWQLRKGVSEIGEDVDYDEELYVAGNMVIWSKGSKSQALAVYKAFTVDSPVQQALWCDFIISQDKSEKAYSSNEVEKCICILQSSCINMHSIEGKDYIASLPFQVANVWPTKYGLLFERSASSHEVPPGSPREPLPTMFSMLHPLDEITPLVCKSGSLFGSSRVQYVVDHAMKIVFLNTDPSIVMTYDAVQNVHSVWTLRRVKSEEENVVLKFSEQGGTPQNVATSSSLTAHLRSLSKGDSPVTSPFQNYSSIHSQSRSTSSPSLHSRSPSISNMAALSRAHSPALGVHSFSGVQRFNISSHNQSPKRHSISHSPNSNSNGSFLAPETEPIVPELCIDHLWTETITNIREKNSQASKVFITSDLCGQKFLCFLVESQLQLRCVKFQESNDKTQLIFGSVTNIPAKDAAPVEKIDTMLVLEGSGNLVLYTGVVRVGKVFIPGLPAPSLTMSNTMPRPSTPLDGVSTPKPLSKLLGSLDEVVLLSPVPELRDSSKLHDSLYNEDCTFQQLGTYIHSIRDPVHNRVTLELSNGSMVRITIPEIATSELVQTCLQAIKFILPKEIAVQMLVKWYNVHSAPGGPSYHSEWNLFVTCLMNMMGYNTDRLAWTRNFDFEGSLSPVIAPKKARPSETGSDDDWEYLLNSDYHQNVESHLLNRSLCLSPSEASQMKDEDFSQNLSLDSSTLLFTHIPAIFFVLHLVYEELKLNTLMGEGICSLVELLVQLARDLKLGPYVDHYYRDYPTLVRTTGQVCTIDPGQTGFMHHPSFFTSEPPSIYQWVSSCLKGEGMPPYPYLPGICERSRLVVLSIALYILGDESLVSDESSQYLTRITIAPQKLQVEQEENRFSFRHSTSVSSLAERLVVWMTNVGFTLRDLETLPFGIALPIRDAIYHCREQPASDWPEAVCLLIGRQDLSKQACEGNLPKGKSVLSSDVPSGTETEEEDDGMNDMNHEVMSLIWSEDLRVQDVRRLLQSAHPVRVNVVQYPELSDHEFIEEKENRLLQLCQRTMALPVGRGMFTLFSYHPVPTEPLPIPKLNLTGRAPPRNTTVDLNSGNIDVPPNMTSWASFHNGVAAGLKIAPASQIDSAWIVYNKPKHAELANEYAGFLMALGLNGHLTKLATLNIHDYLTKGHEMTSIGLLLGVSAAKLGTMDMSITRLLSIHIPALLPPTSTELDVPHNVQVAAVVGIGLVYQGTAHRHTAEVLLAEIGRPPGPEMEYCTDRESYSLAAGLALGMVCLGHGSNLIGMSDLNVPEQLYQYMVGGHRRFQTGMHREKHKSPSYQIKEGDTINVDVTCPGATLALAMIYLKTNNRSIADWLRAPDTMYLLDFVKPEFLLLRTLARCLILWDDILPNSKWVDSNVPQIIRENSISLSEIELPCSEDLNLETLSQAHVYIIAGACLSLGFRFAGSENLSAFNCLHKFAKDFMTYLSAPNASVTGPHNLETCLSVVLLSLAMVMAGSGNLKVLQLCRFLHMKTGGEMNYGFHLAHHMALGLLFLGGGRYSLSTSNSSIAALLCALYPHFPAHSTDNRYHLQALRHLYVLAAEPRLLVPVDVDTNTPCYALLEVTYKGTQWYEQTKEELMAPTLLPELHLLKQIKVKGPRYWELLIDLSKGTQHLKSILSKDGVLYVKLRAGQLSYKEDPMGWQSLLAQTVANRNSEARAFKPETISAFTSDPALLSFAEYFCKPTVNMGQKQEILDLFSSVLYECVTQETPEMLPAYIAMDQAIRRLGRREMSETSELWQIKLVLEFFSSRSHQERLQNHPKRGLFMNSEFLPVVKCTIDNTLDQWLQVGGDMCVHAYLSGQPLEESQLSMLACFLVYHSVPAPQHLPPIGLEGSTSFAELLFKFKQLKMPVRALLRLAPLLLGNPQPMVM
# UniProt Q15067: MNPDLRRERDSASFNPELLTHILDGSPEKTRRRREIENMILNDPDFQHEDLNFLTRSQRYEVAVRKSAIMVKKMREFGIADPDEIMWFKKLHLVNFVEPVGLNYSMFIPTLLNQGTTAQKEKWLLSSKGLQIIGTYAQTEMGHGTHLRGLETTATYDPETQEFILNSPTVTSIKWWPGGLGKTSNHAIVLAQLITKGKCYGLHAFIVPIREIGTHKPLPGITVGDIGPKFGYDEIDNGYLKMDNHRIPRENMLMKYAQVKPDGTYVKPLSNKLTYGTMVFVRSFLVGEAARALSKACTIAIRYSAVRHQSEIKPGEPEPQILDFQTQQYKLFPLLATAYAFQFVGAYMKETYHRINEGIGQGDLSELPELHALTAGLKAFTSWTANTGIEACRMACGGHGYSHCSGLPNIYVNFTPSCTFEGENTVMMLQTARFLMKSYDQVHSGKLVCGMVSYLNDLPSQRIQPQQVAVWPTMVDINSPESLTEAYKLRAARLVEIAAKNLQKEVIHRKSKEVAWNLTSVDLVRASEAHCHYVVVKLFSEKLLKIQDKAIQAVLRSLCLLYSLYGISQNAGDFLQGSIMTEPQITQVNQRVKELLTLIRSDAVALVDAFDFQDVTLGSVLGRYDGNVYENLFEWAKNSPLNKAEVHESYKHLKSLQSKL
# UniProt Q8IWZ3: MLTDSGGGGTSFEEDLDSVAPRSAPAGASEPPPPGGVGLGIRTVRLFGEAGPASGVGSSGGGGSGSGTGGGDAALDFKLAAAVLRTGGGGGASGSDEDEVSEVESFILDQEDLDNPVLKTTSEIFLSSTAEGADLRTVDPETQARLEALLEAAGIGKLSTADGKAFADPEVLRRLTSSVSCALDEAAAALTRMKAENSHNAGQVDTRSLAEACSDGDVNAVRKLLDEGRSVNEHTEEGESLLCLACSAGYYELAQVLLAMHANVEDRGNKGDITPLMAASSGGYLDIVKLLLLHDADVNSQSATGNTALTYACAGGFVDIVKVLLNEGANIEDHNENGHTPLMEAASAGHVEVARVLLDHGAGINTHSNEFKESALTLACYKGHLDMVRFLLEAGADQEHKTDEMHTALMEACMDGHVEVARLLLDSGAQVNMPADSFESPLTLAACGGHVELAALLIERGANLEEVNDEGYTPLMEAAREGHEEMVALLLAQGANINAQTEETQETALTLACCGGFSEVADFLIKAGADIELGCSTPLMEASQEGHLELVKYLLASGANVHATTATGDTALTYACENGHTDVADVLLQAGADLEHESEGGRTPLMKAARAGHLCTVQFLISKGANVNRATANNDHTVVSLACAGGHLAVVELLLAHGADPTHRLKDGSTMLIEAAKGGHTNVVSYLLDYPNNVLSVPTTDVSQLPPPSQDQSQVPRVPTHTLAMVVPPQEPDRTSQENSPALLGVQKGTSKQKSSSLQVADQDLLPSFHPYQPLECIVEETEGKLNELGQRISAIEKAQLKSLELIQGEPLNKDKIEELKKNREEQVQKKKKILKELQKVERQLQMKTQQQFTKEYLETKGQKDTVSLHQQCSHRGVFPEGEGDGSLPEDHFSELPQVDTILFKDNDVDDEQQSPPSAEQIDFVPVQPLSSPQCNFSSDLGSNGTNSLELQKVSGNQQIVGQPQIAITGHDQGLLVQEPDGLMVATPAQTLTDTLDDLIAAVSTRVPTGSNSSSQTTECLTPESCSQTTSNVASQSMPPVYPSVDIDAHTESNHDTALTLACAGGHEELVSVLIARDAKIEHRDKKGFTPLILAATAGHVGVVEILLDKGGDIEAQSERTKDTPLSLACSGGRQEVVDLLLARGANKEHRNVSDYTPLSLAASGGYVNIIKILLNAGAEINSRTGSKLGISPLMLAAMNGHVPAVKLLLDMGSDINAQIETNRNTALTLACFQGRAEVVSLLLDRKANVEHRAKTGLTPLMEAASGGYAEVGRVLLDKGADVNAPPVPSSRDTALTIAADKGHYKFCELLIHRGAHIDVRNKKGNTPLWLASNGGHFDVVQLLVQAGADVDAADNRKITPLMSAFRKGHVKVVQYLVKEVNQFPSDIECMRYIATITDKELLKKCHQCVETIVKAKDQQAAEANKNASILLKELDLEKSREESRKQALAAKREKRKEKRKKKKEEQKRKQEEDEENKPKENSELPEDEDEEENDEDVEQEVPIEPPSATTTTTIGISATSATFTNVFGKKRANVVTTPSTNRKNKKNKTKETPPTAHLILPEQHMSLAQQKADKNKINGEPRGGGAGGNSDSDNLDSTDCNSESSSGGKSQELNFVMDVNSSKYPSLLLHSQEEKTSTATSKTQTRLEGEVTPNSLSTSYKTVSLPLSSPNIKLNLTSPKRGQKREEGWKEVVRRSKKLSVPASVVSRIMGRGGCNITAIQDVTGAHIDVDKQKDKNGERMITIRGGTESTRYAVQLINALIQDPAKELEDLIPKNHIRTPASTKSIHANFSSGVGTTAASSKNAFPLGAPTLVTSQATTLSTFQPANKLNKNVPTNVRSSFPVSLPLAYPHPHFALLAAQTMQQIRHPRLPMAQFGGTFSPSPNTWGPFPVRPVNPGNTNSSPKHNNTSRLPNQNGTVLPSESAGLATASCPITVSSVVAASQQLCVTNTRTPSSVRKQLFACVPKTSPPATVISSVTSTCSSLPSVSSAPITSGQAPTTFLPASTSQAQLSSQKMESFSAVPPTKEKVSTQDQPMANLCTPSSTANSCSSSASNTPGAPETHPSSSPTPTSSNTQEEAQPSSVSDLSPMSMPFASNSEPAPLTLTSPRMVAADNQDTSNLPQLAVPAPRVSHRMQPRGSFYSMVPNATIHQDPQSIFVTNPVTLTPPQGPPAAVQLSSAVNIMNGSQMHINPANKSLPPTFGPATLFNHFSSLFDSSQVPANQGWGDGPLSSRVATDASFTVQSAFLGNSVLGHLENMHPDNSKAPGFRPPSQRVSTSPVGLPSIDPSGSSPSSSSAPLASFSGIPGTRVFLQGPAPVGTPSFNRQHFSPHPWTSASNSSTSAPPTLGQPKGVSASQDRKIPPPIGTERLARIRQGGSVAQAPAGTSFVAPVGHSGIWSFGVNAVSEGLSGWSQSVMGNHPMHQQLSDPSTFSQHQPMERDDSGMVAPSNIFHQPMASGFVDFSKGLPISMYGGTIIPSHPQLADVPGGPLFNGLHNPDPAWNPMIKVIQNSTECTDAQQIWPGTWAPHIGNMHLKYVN
# The list shows a part of the results.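 The calls were made as follows: active = dose-dependent thermal stabilisation significant by F-test of dose-response against flat model at 10% FDR; inactive = not significant.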
# Compound: Nc1nc2c(ncn2[C@@H]2O[C@H](COP(=O)(O)OP(=O)(O)OP(=O)(O)O)[C@@H](O)[C@H]2O)c(=O)[nH]1
# Assay: dose-dependent thermal stabilisation call (2D-TPP, DLPTP, 10% FDR) (binary (1 = stabilised)); higher = stabilised by the compound
# Details: system: Jurkat gel-filtered lysate; concentration range 1-500 µM
row,Target,dose-dependent thermal stabilisation call
1,AGA (UniProt P20933),inactive: 0
2,AK3 (UniProt Q9UIJ7),inactive: 0
3,ANXA11 (UniProt P50995),inactive: 0
4,ABL1 (UniProt P00519),inactive: 0
5,ARG2 (UniProt P78540),inactive: 0
6,AIF1L (UniProt Q9BQI0),inactive: 0
7,ANAPC10 (UniProt Q9UM13),inactive: 0
8,AIDA (UniProt Q96BJ3),inactive: 0
9,ANAPC1 (UniProt Q9H1A4),inactive: 0
10,ACAP1 (UniProt Q15027),active: 1
11,ACOX1 (UniProt Q15067),inactive: 0
12,ARF4 (UniProt P18085),active: 1
13,ARHGAP25 (UniProt P42331),inactive: 0
14,ARFGAP2 (UniProt Q8N6H7),inactive: 0
15,ANKHD1 (UniProt Q8IWZ3),inactive: 0
16,ARFIP2 (UniProt P53365),inactive: 0
17,ADNP (UniProt Q9H2P0),inactive: 0
18,ALAD (UniProt P13716),inactive: 0
19,ACIN1 (UniProt Q9UKV3),inactive: 0

# Fetched one by one from the list above:
row,Target,dose-dependent thermal stabilisation call
11,ACOX1 (UniProt Q15067),inactive: 0
7,ANAPC10 (UniProt Q9UM13),inactive: 0
